Results: EP0485217A2, “Hydantoin derivatives, and their use in preventing and treating diabetic complications and circulatory organ diseases” (priority 1990, dated 1992)
Where two headings read alike, the source gives them in different places.

Tested on: Extracted Guinea Pigs' Aortae
Assay: Relaxation of extracted thoracic aorta contracted by KCl or NE
Parameters: species or system Hartley guinea pigs
Conditions: Cavia porcellus, 50% relaxation
Description: Stunned by receiving a blow on the head, Hartley guinea pigs (weighing 300-500 g) were fixed at the back regions, and the thoracic aortae were then extracted to prepare helical samples, each ca. 2 mm in width and ca. 25 mm in length. Each sample was suspended in a Magnus tube under a load of ca. 1 g and connected at the upper end with an FD pickup by means of silk thread to record its isometric tension change on a recorder.
Prior to initiating the experiment, the sample was allowed to stand for 60 to 90 minutes, during which the Krebs-Henseleit solution was replaced by a new one at an interval of 20 to 30 minutes. […] Finally, papaverine was additionally provided to regulate the final concentration to 2 x 10- ^5g/ml, thereby observing and recording what relaxing reaction took place.
The state stabilized by the addition of KCI or NE was defined as a 100% relaxation rate, on the basis of which what reaction took place at each concentration was relatively estimated.

IC50 (contraction by KCl 2.5 x 10^-2M, read-out: IC50(M) Contraction by KCl): 0.0002 M
IC50 (contraction by norepinephrine 10^-6 g/ml, read-out: IC50(M) Contraction by NE): 0.0001 M
Compound: C(=C\c1ccccc1)/CN1CCN(C(c2ccccc2)c2ccccc2)CC1 [Cinnarizine, reference compound]
